Source: PubChem BioAssay AID1224830 (NIAID, 2016)

Screen: 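Genes whose knock-down alters the TNF-alpha reporter response to LPS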 (primary screen)
Cell system: human THP-1 monocytic leukaemia cells, TNF dual-luciferase reporter clone, PMA-differentiated to macrophage-like cells
Reagent: siRNA pool against human genes, 50 nM
Timing: LPS for 4 h, given about 3 days after siRNA transfection
Treatment: bacterial LPS (TLR4 ligand), 10 ng/ml
Read-out: 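TNF firefly reporter luminescence divided by renilla, normalised to the plate median, then turned into a robust z-score for each replicate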
Reading the numbers: TNF reporter robust z-score: higher = stronger TNF reporter response to LPS
Rule for the call: 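Each well counts as active if its z-score is over 2.8 or under -1.5; controls are left without a call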
The whole screen tested about 18,000 reagents; shown is a random part of them. Of all reagents, about 2,900 (16%) were called active. 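Calls are made per well; low scores hint the gene aids the LPS response, high scores that it dampens it.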 Repeated entries: four replicate wells of each siRNA pool.

gene	TNF reporter robust z-score	Outcome
BBS12 (GeneID 166379)	-0.53	inactive
BBS12 (GeneID 166379)	0.81	inactive
BBS12 (GeneID 166379)	-0.19	inactive
BBS12 (GeneID 166379)	-0.24	inactive
CCDC187 (GeneID 399693)	0.35	inactive
CCDC187 (GeneID 399693)	-0.53	inactive
CCDC187 (GeneID 399693)	0.79	inactive
CCDC187 (GeneID 399693)	0.56	inactive
RAB11FIP4 (GeneID 84440)	-0.95	inactive
RAB11FIP4 (GeneID 84440)	-0.52	inactive
RAB11FIP4 (GeneID 84440)	-0.72	inactive
RAB11FIP4 (GeneID 84440)	0.19	inactive
OR4K1 (GeneID 79544)	0.51	inactive
OR4K1 (GeneID 79544)	-0.09	inactive
OR4K1 (GeneID 79544)	2.07	inactive
OR4K1 (GeneID 79544)	0.1	inactive
ARNT2 (GeneID 9915)	-0.36	inactive
ARNT2 (GeneID 9915)	0.12	inactive
ARNT2 (GeneID 9915)	-0.45	inactive
ARNT2 (GeneID 9915)	-0.02	inactive
SERPINA12 (GeneID 145264)	-0.28	inactive
SERPINA12 (GeneID 145264)	-0.1	inactive
SERPINA12 (GeneID 145264)	-0.31	inactive
SERPINA12 (GeneID 145264)	-0.97	inactive
OTUD5 (GeneID 55593)	-1.45	inactive
OTUD5 (GeneID 55593)	-0.63	inactive
OTUD5 (GeneID 55593)	-0.82	inactive
OTUD5 (GeneID 55593)	-1.38	inactive
COPG1 (GeneID 22820)	-0.87	inactive
COPG1 (GeneID 22820)	-0.4	inactive
COPG1 (GeneID 22820)	-1.27	inactive
COPG1 (GeneID 22820)	-0.39	inactive
EN1 (GeneID 2019)	-1.15	inactive
EN1 (GeneID 2019)	-1.37	inactive
EN1 (GeneID 2019)	-0.9	inactive
EN1 (GeneID 2019)	-0.37	inactive
VASP (GeneID 7408)	3.45	active
VASP (GeneID 7408)	2.02	inactive
VASP (GeneID 7408)	1.88	inactive
VASP (GeneID 7408)	-0.98	inactive
TMEM156 (GeneID 80008)	0.72	inactive
TMEM156 (GeneID 80008)	0.61	inactive
TMEM156 (GeneID 80008)	0.25	inactive
TMEM156 (GeneID 80008)	-0.6	inactive
TTI2 (GeneID 80185)		inactive
RDH16 (GeneID 8608)	-0.41	inactive
RDH16 (GeneID 8608)	0.28	inactive
RDH16 (GeneID 8608)	-0.63	inactive
RDH16 (GeneID 8608)	-0.15	inactive

Quoted from the listing for reference:
gene	TNF reporter robust z-score	Outcome
SERPINA12 (GeneID 145264)	-0.97	inactive
OTUD5 (GeneID 55593)	-1.45	inactive
OTUD5 (GeneID 55593)	-0.63	inactive
OTUD5 (GeneID 55593)	-0.82	inactive
OTUD5 (GeneID 55593)	-1.38	inactive
COPG1 (GeneID 22820)	-0.87	inactive
COPG1 (GeneID 22820)	-0.4	inactive
COPG1 (GeneID 22820)	-1.27	inactive
COPG1 (GeneID 22820)	-0.39	inactive
EN1 (GeneID 2019)	-1.15	inactive
EN1 (GeneID 2019)	-1.37	inactive
EN1 (GeneID 2019)	-0.9	inactive

Further results follow.
gene	TNF reporter robust z-score	Outcome
ROBO2 (GeneID 6092)	-0.64	inactive
ROBO2 (GeneID 6092)	-0.92	inactive
ROBO2 (GeneID 6092)	-1.38	inactive
ROBO2 (GeneID 6092)	0	inactive
ZC3H18 (GeneID 124245)	-1.27	inactive
ZC3H18 (GeneID 124245)	-0.59	inactive
ZC3H18 (GeneID 124245)	-0.69	inactive
ZC3H18 (GeneID 124245)	-0.21	inactive
ANKRD28 (GeneID 23243)	0.23	inactive
ANKRD28 (GeneID 23243)	-0.01	inactive
ANKRD28 (GeneID 23243)	0.08	inactive
ANKRD28 (GeneID 23243)	0.25	inactive
ZNF567 (GeneID 163081)	-1.31	inactive
ZNF567 (GeneID 163081)	-1.87	active
ZNF567 (GeneID 163081)	-1.43	inactive
ZNF567 (GeneID 163081)	-1.4	inactive
CPE (GeneID 1363)	-0.39	inactive
CPE (GeneID 1363)	0.98	inactive
CPE (GeneID 1363)	1.3	inactive
CPE (GeneID 1363)	-0.12	inactive
PNMA2 (GeneID 10687)	-0.1	inactive
PNMA2 (GeneID 10687)	-0.45	inactive
PNMA2 (GeneID 10687)	0.42	inactive
PNMA2 (GeneID 10687)	-0.07	inactive
CAMK2B (GeneID 816)	-0.52	inactive
CAMK2B (GeneID 816)	0.43	inactive
CAMK2B (GeneID 816)	0.1	inactive
CAMK2B (GeneID 816)	-0.04	inactive
VGLL2 (GeneID 245806)	-1.53	active
VGLL2 (GeneID 245806)	-1.36	inactive
VGLL2 (GeneID 245806)	-1.18	inactive
VGLL2 (GeneID 245806)	-1.09	inactive
KCNA3 (GeneID 3738)	-0.63	inactive
KCNA3 (GeneID 3738)	-0.29	inactive
KCNA3 (GeneID 3738)	-0.69	inactive
KCNA3 (GeneID 3738)	-0.13	inactive
MID1 (GeneID 4281)	-0.19	inactive
MID1 (GeneID 4281)	1.84	inactive
MID1 (GeneID 4281)	0.6	inactive
MID1 (GeneID 4281)	1.88	inactive
ASB6 (GeneID 140459)	2.51	inactive
ASB6 (GeneID 140459)	0.23	inactive
ASB6 (GeneID 140459)	0.85	inactive
ASB6 (GeneID 140459)	0.72	inactive
CAPN3 (GeneID 825)	-1.46	inactive
CAPN3 (GeneID 825)	-1.16	inactive
CAPN3 (GeneID 825)	-1.45	inactive
CAPN3 (GeneID 825)	-1.21	inactive
IGSF21 (GeneID 84966)	-0.08	inactive
IGSF21 (GeneID 84966)	-0.57	inactive
IGSF21 (GeneID 84966)	0.45	inactive
IGSF21 (GeneID 84966)	0.87	inactive
MVB12A (GeneID 93343)	-1.43	inactive
MVB12A (GeneID 93343)	-1.25	inactive
MVB12A (GeneID 93343)	-1.51	active
MVB12A (GeneID 93343)	-1.04	inactive
USP51 (GeneID 158880)	1.16	inactive
USP51 (GeneID 158880)	1.26	inactive
USP51 (GeneID 158880)	1.48	inactive
USP51 (GeneID 158880)	1.73	inactive
ACYP1 (GeneID 97)	0.83	inactive
ACYP1 (GeneID 97)	0.72	inactive
ACYP1 (GeneID 97)	-0.09	inactive
ACYP1 (GeneID 97)	0.67	inactive
FMO2 (GeneID 2327)	1.01	inactive
FMO2 (GeneID 2327)	1.65	inactive
FMO2 (GeneID 2327)	1.42	inactive
FMO2 (GeneID 2327)	1.28	inactive
TNFRSF1A (GeneID 7132)	-1.32	inactive
TNFRSF1A (GeneID 7132)	-1.21	inactive
TNFRSF1A (GeneID 7132)	-1.5	inactive
TNFRSF1A (GeneID 7132)	-1.46	inactive
FAM110A (GeneID 83541)	-1	inactive
FAM110A (GeneID 83541)	0.19	inactive
FAM110A (GeneID 83541)	-1.08	inactive
FAM110A (GeneID 83541)	-1.21	inactive
CYP1A2 (GeneID 1544)	1.01	inactive
CYP1A2 (GeneID 1544)	0	inactive
CYP1A2 (GeneID 1544)	-0.02	inactive
CYP1A2 (GeneID 1544)	0.11	inactive
PRPH2 (GeneID 5961)	-1.35	inactive
PRPH2 (GeneID 5961)	-1.33	inactive
PRPH2 (GeneID 5961)	-1.51	active
PRPH2 (GeneID 5961)	-1.12	inactive
ADRA2B (GeneID 151)	-0.38	inactive
ADRA2B (GeneID 151)	-0.74	inactive
ADRA2B (GeneID 151)	-1.26	inactive
ADRA2B (GeneID 151)	0.21	inactive
SUPV3L1 (GeneID 6832)	-0.9	inactive
SUPV3L1 (GeneID 6832)	-1.12	inactive
SUPV3L1 (GeneID 6832)	-1.13	inactive
SUPV3L1 (GeneID 6832)	-1.09	inactive
